Results are given in words; binding and its absence hold for the method and conditions named. For some of these results: A result given as binding can be weak or reduced; the word gives no strength. Where a sequence is shown, tags or fusion partners need not be part of it.
Experiments:
[1] = target: NS5B (HCV-derived, RNA-dependent RNA polymerase) (HCV); assay: GST pull-down with glutathione Sepharose, 35S-labeled in vitro synthesized protein, autoradiography
[2] = target: NS5B (HCV-derived, RNA-dependent RNA polymerase) (HCV); assay: GST pull-down (recap of the in vitro experiment)
[3] = target: NS5B (HCV-derived, RNA-dependent RNA polymerase) (HCV); assay: GST pull-down of 35S-labelled in vitro synthesized NS5B with GST-CSABP on glutathione Sepharose, CsA added to the co-culture, SDS-PAGE, autoradiography
[4] = target: NS5B (HCV-derived, RNA-dependent RNA polymerase) (HCV); assay: GST pull-down with various in vitro synthesized NS5B fragments
NS3 (hepatitis C virus) = assay: GST pull-down of 35S-labelled in vitro synthesized protein with GST-CSABP on glutathione Sepharose, SDS-PAGE, autoradiography
NS5A (hepatitis C virus) = assay: as above
NS4B (hepatitis C virus) = assay: as above

Measured: binding

B1: CSABP-GST fusion protein (protein, not shown: a dimerising Fc or GST)
chain: MSRPSSVSPRQPAPGGGGGGGPSPCGPGGGGRAKGLKDIRIDEEVKIAVNIALERFRYGDQREMEFPSSLTSTERAFIHRLSQSLGLVSKSKGKGANRYLTVKKKDGSETAHAMMTCNLTHNTKHAVRSLIQRFPVTNKERTELLPKTERGNVFAVEAENREMSKTSGRLNNGIPQIPVKRGESEFDSFRQSLPVFEKQEEIVKIIKENKVVLIVGETGSGKTTQIPQFLLDDCFKNGIPCRIFCTQPRRLAAIAVAERVAAERRERIGQTIGYQIRLESRVSPKTLLTFCTNGVLLRTLMAGDSTLSTVTHVIVDEVHERDRFSDFLLTKLRDLLQKHPTLKLILSSAALDVNLFIRYFGSCPVIYIQGRPFEVKEMFLEDILRTTGYTNKEMLKYKKEKQQEEKQQTTLTEWYSAQENSFKPESQRQRTVLNVTDEYDLLDDGGDAVFSQLTEKDVNCLEPWLIKEMDACLSDIWLHKDIDAFAQVFHLILTENVSVDYRHSETSATALMVAAGRGFASQVEQLISMGANVHSKASNGWMALDWAKHFGQTEIVDLLESYSASLEFGNLDESSLVQTNGSDLSAEDRELLKAYHHSFDDEKVDLDLIMHLLYNICHSCDAGAVLIFLPGYDEIVGLRDRILFDDKRFADNTHRYQVFMLHSNMQTSDQKKVLKNPPAGVRKIILSTNIAETSITVNDVVFVIDSGKVKEKSFDALNFVTMLKMVWISKASAIQRKGRAGRCRPGICFRLFSRLRFQNMLEFQTPELLRMPLQELCLHTKLLAPVNCPIADFLMKAPEPPPALIVRNAVQMLKTIDAMDTWEDLTELGYHLADLPVEPHLGKMVLCAVVLKCLDPILTIACTLAYRDPFVLPTQASQKRAAMLCRKRFTAGAFSDHMALLRAFQAWQKARSDGWERAFCEKNFLSQATMEIIIGMRTQLLGQLRASGFVRARGGGDIRDVNTNSENWAVVKAALVAGMYPNLVHVDRENLVLTGPKEKKVRFHPASVLSQPQYKKIPPANGQAAAIKALPTDWLIYDEMTRAHRIANIRCCSAVTPVTILVFCGPARLASNALQEPSSFRVDGIPNDSSDSEMEDKTTANLAALKLDEWLHFTLEPEAASLLLQLRQKWHSLFLRRMRAPSKPWSQVDEATIRAIIAVLSTEEQSAGLQQPSGIGQRPRPMSSEELPLASSWRSNNSRKSSADTEFSDECTTAERVLMKSPSPALHPPQKYKDRGILHPKRGTEDRSDQSSLKSTDSSSYPSPCASPSPPSSGKGSKSPSPRPNMPVRYFIMKSSNLRNLEISQQKGIWSTTPSNERKLNRAFWESSIVYLVFSVQGSGHFQGFSRMSSEIGREKSQDWGSAGLGGVFKVEWIRKESLPFQFAHHLLNPWNDNKKVQISRDGQELEPLVGEQLLQLWERLPLGEKNTTD
no binding: NS3 (hepatitis C virus) | NS5A (hepatitis C virus) | NS4B (hepatitis C virus)
binds: all other assays above

From patent US20110158908A1, “CYCLOSPORIN A-BINDING PROTEIN” (Sapporo Medical University, priority 2007, published 2011)
